No constants are given. Whether binding was seen depends on the method and setting. Binding can be weak; no strength is given.
Target: human fibronectin (human)
Assay: affinity chromatography with MALDI-TOF MS; synthesized peptides mixed 1:1 by mass (GIA: peptides 1 and 2; GPP: peptides 3 and 4), loaded on a micro FN-affinity column (100 μL), washed until the wash held no sample, eluate read by MALDI-TOF MS; both purified

Row | binding | Binder
1 | binds | GPPGPMGPPGLAGPPGESGR [synthesized peptide 3, …]
2 | binds | GAPGADGPAGAPGTPGPQGIAGQR [synthesized peptide 1, …]

From PMC9506415
